In paper PMC7819943, “Rice protein-binding microarrays: a tool to detect cis-acting elements near promoter regions in rice”:
The list shows a part of the results.

target: T1, OsSMF1 (Oryza sativa, UniProt Q6ZLB0 1-436); assay: protein-binding microarray (RPBM); PBS, 2% BSA, 51.3 ng/ul salmon testes DNA, 50 uM zinc acetate, 200 nM TF, 25 C, 1 h; high values mean tight binding; conditions: protein: recombinant; tags: N-terminal polyhistidine and DsRed monomer fusion (pET32a); chain copies: 2; label: CyDye5-dUTP incorporated in the synthesized complementary strand; 3' TTTTT single-stranded linker to array surface; dsDNA, one strand shown
T1 sequence: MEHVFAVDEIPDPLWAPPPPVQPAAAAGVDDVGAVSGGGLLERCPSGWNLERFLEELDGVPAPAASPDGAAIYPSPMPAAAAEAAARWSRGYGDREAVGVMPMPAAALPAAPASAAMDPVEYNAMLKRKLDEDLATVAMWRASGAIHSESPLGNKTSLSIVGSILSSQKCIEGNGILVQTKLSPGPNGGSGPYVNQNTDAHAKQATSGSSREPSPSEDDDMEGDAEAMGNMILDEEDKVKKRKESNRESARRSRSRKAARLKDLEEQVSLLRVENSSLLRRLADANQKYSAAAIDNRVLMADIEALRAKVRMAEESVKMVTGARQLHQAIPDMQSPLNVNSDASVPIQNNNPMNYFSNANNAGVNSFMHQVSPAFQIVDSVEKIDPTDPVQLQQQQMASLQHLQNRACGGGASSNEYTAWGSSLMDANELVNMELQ
Method in brief: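 Per-feature fluorescence intensity (arbitrary units), read on an Axon 4000B scanner, is the binding signal. Transcription factors carrying an N-terminal polyhistidine tag and DsRed fusion were expressed in E. coli BL21-CodonPlus and purified on Ni–NTA. A custom Agilent array, made double-stranded by primer extension with Cy5-dUTP and blocked with 2% BSA, was incubated with 200 nM protein in PBS, 2% BSA, salmon testes DNA and 50 µM zinc acetate at 25 °C for 1 h and then washed.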

**Q.** With “CGGCACGTGGATGTGCAGCCAGTGACGTACGTATAGTTATCGGAGTCACCTAGTGCAG” as the sequence, how does the binding signal read?
**A.** The binding signal was 3940 fluorescence intensity (a.u.).

**Q.** How did the binding signal turn out when “CTGTCTTATACCGTTATACGCTGACGTCAGCAATAGTGTCCGGAGTCACCTAGTGCAG” was run?
**A.** The binding signal was 23000 fluorescence intensity (a.u.).

**Q.** For “GTGTAAAGAAGACCCGGTCAATATCGCCACGTCAGCGAAACGGAGTCACCTAGTGCAG”, which binding signal is on record?
**A.** Its binding signal is 21400 fluorescence intensity (a.u.).

**Q.** How did the binding signal turn out when “AGGCCTTGCTTCTCCCGTAGCTTACGTGTAAACGACGACCCGGAGTCACCTAGTGCAG” was run?
**A.** The binding signal was 18300 fluorescence intensity (a.u.).

**Q.** For “CTCCCCTAACTATGTGCAGTGTCACTGACATGTGGGTCATCGGAGTCACCTAGTGCAG”, which binding signal is on record?
**A.** The binding signal was 4110 fluorescence intensity (a.u.).

**Q.** How did the binding signal turn out when “TCTGTAGTAGTCATCATCACCTAGGTGCCTACCCTTTTGACGGAGTCACCTAGTGCAG” was run?
**A.** The binding signal was 3280 fluorescence intensity (a.u.).

**Q.** Which binding signal does the source give for “CTAAGGGTCTAAGAGATGATGCTGTGATGAGGTGGATCATCGGAGTCACCTAGTGCAG” here?
**A.** The binding signal was 4840 fluorescence intensity (a.u.).

**Q.** “CCCTGCGCTGCCACGCGGCCGGCATCCGCCAAAGCAACAGCGGAGTCACCTAGTGCAG” was tested. Which binding signal did it give?
**A.** Its binding signal is 4880 fluorescence intensity (a.u.).

**Q.** Which binding signal does the source give for “ATATGGCCCATTGACCTAGTCCAACCGCTAAGTCATCATTCGGAGTCACCTAGTGCAG” here?
**A.** Its binding signal is 22900 fluorescence intensity (a.u.).

**Q.** “CCAAGCATTAATGACGCTTTAAATTACTACCCCTTCCGTGCGGAGTCACCTAGTGCAG” was tested. Which binding signal did it give?
**A.** Its binding signal is 3950 fluorescence intensity (a.u.).

**Q.** Which binding signal does the source give for “CGATGGTGGCTCATGGAGAAAGAGGGGTGATGGCGGTGCGCGGAGTCACCTAGTGCAG” here?
**A.** Its binding signal is 3690 fluorescence intensity (a.u.).

**Q.** With “CCATTTATAGGTGTGTGAGGTGTGGTGTGCATGTGTATTTCGGAGTCACCTAGTGCAG” as the sequence, how does the binding signal read?
**A.** Its binding signal is 4440 fluorescence intensity (a.u.).

**Q.** Which binding signal does the source give for “TGTGTTTATGTACGTGCGTAGGCAGGCGTGTTCGGCCGGACGGAGTCACCTAGTGCAG” here?
**A.** Its binding signal is 3400 fluorescence intensity (a.u.).

**Q.** “GCAGCCACGACGCCCGCCAATGCTGCCGCCGCCATCGATGCGGAGTCACCTAGTGCAG” was tested. Which binding signal did it give?
**A.** Its binding signal is 5300 fluorescence intensity (a.u.).

**Q.** Which binding signal does the source give for “ACCAGCGAAAATCTATTTTCACTAGCGGTTGCTTACGTGGCGGAGTCACCTAGTGCAG” here?
**A.** Its binding signal is 22900 fluorescence intensity (a.u.).

**Q.** Which binding signal does the source give for “TCAGAGCCGTTCAACCCCACGCGTGGACACAATCTGACCACGGAGTCACCTAGTGCAG” here?
**A.** Its binding signal is 3980 fluorescence intensity (a.u.).

**Q.** How did the binding signal turn out when “AGTATATATATCGTCGTCGTCTCCGTCGACGACAAAACTGCGGAGTCACCTAGTGCAG” was run?
**A.** The binding signal was 3740 fluorescence intensity (a.u.).

**Q.** “GAAAAGGTGTATTGGATCATGCTTGAAGAATGATGACTATCGGAGTCACCTAGTGCAG” was tested. Which binding signal did it give?
**A.** Its binding signal is 3630 fluorescence intensity (a.u.).

**Q.** “GCAGCAATCTTGGTCTCTAGCTAGTTCTGTTCAATACTAGCGGAGTCACCTAGTGCAG” was tested. Which binding signal did it give?
**A.** The binding signal was 3640 fluorescence intensity (a.u.).

**Q.** “AGCTCCCGAAAATATCTCTTGCTCGATATAAACGGGCCGGCGGAGTCACCTAGTGCAG” was tested. Which binding signal did it give?
**A.** The binding signal was 4060 fluorescence intensity (a.u.).

**Q.** Which binding signal does the source give for “GGCACACGCGAGGGCACCACTCCACGTCAAGGTATGGTCACGGAGTCACCTAGTGCAG” here?
**A.** Its binding signal is 9790 fluorescence intensity (a.u.).

**Q.** “GAACTGAAGGTTTCTGGAGGATGCGTCATGGTGATCTTAACGGAGTCACCTAGTGCAG” was tested. Which binding signal did it give?
**A.** The binding signal was 4200 fluorescence intensity (a.u.).

**Q.** Which binding signal does the source give for “ATCTGTGTGTATGTTTGTGGGTTTCTGTCCATTGAGATATCGGAGTCACCTAGTGCAG” here?
**A.** Its binding signal is 3280 fluorescence intensity (a.u.).

**Q.** How did the binding signal turn out when “ATCCTGGGCCCAACTCGCCAATGTAAAGCCTTCTTTCTCGCGGAGTCACCTAGTGCAG” was run?
**A.** The binding signal was 3460 fluorescence intensity (a.u.).

**Q.** For “GTGTTGGAGAGCTGCAGCGGCGAGGAGTTGCGCACCTGGCCGGAGTCACCTAGTGCAG”, which binding signal is on record?
**A.** Its binding signal is 19600 fluorescence intensity (a.u.).

**Q.** How did the binding signal turn out when “GCAACCTCATCAGCGCTTGCTCGATGGATGACAGACGAGGCGGAGTCACCTAGTGCAG” was run?
**A.** Its binding signal is 3400 fluorescence intensity (a.u.).

**Q.** How did the binding signal turn out when “ATGGGCTGATTGGGCCAGATTACACGTGCGACGTATCTGTCGGAGTCACCTAGTGCAG” was run?
**A.** The binding signal was 5450 fluorescence intensity (a.u.).

**Q.** Which binding signal does the source give for “GTAACACAGCCCTCGGCCACGTTTCAAACTTCCAGAGTTCCGGAGTCACCTAGTGCAG” here?
**A.** The binding signal was 3520 fluorescence intensity (a.u.).

**Q.** How did the binding signal turn out when “ATAGATCGATGGATCGATGGATCGCGGCCAGCTCAGATATCGGAGTCACCTAGTGCAG” was run?
**A.** The binding signal was 5840 fluorescence intensity (a.u.).

**Q.** How did the binding signal turn out when “GTGAAGAAATGCAATTTACACTCTTGATGAATCATCTAAACGGAGTCACCTAGTGCAG” was run?
**A.** Its binding signal is 4170 fluorescence intensity (a.u.).

**Q.** For “TTACAGTATAGTCCTAGAAACTATTTGGCATGCGTTGATTCGGAGTCACCTAGTGCAG”, which binding signal is on record?
**A.** Its binding signal is 12900 fluorescence intensity (a.u.).

**Q.** With “TGGGATATTTTGGCCATGTACAACACTCCACCGTGGGTAGCGGAGTCACCTAGTGCAG” as the sequence, how does the binding signal read?
**A.** Its binding signal is 4540 fluorescence intensity (a.u.).

**Q.** “TTATTTGGCGCTGAGCTATGATGACTCAGCAAATTCGTGCCGGAGTCACCTAGTGCAG” was tested. Which binding signal did it give?
**A.** The binding signal was 21700 fluorescence intensity (a.u.).

**Q.** Which binding signal does the source give for “TGGCATATGCTCCAAATATTCCAAACTAAACCCCTTCTTGCGGAGTCACCTAGTGCAG” here?
**A.** Its binding signal is 21500 fluorescence intensity (a.u.).

**Q.** For “GCCCCGGTGCCACGTGTTCGGCCGAGACGCCCTCTCCTCTCGGAGTCACCTAGTGCAG”, which binding signal is on record?
**A.** The binding signal was 28100 fluorescence intensity (a.u.).

**Q.** With “CCAGCATTTTCGTCTGTCAGCCAGGCAAACCAAAATGGGGCGGAGTCACCTAGTGCAG” as the sequence, how does the binding signal read?
**A.** The binding signal was 3530 fluorescence intensity (a.u.).

**Q.** How did the binding signal turn out when “TTTTAAAACCACATCAGCCACATTTACCTTATCCTCTCGCCGGAGTCACCTAGTGCAG” was run?
**A.** The binding signal was 3880 fluorescence intensity (a.u.).

**Q.** Which binding signal does the source give for “TATACTCACTTTTGTTTTATAGTATAGTTCGATTTAACTTCGGAGTCACCTAGTGCAG” here?
**A.** Its binding signal is 22500 fluorescence intensity (a.u.).

**Q.** “GGCGTCTGTCCTGACCACCTCGCACGTCCGCCGTCTCCTCCGGAGTCACCTAGTGCAG” was tested. Which binding signal did it give?
**A.** Its binding signal is 3660 fluorescence intensity (a.u.).

**Q.** Which binding signal does the source give for “ATTCGTCCATGAAAAGAGAGAGACAACTAGATCCAAAAGTCGGAGTCACCTAGTGCAG” here?
**A.** Its binding signal is 3210 fluorescence intensity (a.u.).

**Q.** How did the binding signal turn out when “GTATTTTAAGAGGGAGGGAGTAGATCGTAGCAGGTGGACACGGAGTCACCTAGTGCAG” was run?
**A.** The binding signal was 3720 fluorescence intensity (a.u.).

**Q.** With “AGTGGTGGAGAAGGAGAGGAGAGGCAGAGAGAATGAGGAGCGGAGTCACCTAGTGCAG” as the sequence, how does the binding signal read?
**A.** The binding signal was 3240 fluorescence intensity (a.u.).
